Laboratory results from US4556676A, “Antidepressant derivatives of trans-4-phenyl-1,2,3,4-tetrahydro-1-naphthalenamine” (priority 1980, dated 1985).

What was measured:
[1] = tested on: 5-hydroxytryptophan-induced tremors; assay: Potentiation of 5-hydroxytryptophan-induced behavioral symptoms (tremors) in vivo; set-up: species or system Swiss-Webster CD male mice; conditions: Mus musculus, po, 1 h, read-out: ED50 (tremors), mice, oral, then 100 mg./kg. i.p. 5HTP one hour later
mice = assay: Reduction of behavioral despair in vivo (modified Porsolt mouse swim test); set-up: species or system Swiss-Webster CD male mice; conditions: sc, 1 h, read-out: % MPE50 (dosage producing a 50% reduction in immobility relative to control)

| SMILES | ED50 [1] | ED50 (mice) |
| --- | --- | --- |
| CN[C@H]1CC[C@H](c2ccc(Cl)c(Cl)c2)c2ccccc21.Cl [Example 2, Trans-(1S)-N-methyl-4-(3,4-dichlorophenyl)-1,2,3,4-tetrahydro-1-naphthalenamine Hydrochloride] | < 10 mg/kg | – |
| CN[C@@H]1CC[C@@H](c2ccc(Cl)c(Cl)c2)c2ccccc21.Cl [Example 3, Trans-(1R)-N-methyl-4-(3,4-dichlorophenyl)-1,2,3,4-tetrahydro-1-naphthalenamine Hydrochloride] | < 10 mg/kg | 1.2 mg/kg |
